At least one structure is not confirmed: it was looked up by name or label, or the drawing left a doubt.
Target: GPR81 (Homo sapiens, UniProt Q9BXC0)
Experiment: GPR81 agonist ligand activity, GTPγS binding assay (species of receptor not given)
Format: biochemical
Set-up: expressed in transfected cells; host or cells: GPR81-expressing cells / membranes (CHO)
Conditions: yes/no

By UniProt entry, the sequences of proteins in these tests, tags left out.
UniProt Q9BXC0, whole entry, species assumed: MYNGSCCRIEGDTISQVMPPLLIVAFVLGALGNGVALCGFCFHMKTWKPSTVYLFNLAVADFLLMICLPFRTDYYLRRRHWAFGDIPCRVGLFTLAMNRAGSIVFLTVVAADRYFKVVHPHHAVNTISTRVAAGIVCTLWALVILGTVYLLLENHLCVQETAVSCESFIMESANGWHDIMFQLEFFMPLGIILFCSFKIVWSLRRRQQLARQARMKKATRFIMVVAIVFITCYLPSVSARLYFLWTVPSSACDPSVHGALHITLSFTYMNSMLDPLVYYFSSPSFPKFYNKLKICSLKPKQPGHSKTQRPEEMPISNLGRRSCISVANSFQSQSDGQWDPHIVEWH

Compound | GPR81 agonist activity
CCCC(=O)O [butyrate] | no
CC(=O)C(=O)O [pyruvate] | neither acetate, pyruvate, formiate, nor glyoxylate activated GPR81 and no
